The list shows a part of the results.
Legend:
Assay in all cases: log2 fold change, soluble protein after heating vs DMSO (PISA); higher = thermal stabilisation; K562 cells, 10 uM, 30 min; active = over 0.2 and 3.5 SD of the protein, either way, in both replicates (recomputed)
[1] = compound: CC1=C(C=C(C=C1)NC(=O)C2=CC(=CC=C2)C(C)(C)C#N)NC3=CC4=C(C=C3)N=CN(C4=O)C
Summary of the method: (§1)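 Values are thermal stability changes relative to control samples and are taken from duplicates. They are stated as log2 fold changes. Before quantification by TMTpro 16plex LC-MS/MS with equalised channel sums, K562 cells at 2×10^6 cells/mL were treated with 10 μM compound for 30 min, heated in aliquots for 3 min across 48°C-58°C, pooled, extracted in PBS with 0.5% NP-40 at 4°C, and centrifuged at 21,000xg for 90 min to give the soluble supernatant.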

Sequences of proteins named here, by UniProt entry; tags and fusion partners are left off. A change or cut given only in a name is not applied to a line headed by its entry.
UniProt Q8WU90: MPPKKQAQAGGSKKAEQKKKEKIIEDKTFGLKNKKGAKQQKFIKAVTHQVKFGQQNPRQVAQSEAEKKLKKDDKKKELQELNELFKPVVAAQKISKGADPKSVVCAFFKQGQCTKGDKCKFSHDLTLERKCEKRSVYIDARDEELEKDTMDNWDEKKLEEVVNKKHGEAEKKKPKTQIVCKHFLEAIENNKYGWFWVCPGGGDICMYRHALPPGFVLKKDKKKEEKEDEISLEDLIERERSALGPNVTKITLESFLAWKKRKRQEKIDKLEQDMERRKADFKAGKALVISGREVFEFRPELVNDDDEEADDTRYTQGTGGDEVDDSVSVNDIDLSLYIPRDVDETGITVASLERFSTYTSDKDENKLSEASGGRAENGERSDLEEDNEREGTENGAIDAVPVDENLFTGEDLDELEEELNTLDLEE
UniProt Q9BW85: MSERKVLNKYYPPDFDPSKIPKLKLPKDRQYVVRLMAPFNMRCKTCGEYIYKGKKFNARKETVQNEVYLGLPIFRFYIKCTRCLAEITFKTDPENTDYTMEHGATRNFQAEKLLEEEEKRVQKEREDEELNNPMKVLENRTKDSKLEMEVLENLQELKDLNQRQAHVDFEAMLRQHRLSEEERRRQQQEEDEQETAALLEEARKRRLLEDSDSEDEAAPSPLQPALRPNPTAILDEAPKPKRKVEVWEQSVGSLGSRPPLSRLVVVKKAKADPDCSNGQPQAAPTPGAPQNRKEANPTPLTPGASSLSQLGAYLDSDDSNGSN
UniProt Q96TA2: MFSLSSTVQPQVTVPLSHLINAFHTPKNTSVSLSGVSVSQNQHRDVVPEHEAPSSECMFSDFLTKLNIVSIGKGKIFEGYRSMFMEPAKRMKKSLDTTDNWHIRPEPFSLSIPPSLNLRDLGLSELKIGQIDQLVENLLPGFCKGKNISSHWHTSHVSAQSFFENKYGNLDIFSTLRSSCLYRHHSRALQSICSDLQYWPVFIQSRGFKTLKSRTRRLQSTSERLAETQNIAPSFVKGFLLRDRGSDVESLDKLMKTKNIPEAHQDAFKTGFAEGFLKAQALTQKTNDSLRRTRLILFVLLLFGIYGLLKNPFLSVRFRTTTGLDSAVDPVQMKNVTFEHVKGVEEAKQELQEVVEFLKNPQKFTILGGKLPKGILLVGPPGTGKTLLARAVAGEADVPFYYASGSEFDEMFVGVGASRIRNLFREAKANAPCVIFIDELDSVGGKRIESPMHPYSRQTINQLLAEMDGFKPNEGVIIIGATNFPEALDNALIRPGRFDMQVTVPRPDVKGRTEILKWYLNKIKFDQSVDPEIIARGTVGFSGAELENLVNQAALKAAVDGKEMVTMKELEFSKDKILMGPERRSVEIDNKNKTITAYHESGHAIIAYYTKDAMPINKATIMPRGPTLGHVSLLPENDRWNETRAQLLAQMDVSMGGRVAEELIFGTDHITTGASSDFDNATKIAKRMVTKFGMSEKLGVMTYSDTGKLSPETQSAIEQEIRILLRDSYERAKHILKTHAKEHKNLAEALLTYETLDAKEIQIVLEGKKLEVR
UniProt P54577: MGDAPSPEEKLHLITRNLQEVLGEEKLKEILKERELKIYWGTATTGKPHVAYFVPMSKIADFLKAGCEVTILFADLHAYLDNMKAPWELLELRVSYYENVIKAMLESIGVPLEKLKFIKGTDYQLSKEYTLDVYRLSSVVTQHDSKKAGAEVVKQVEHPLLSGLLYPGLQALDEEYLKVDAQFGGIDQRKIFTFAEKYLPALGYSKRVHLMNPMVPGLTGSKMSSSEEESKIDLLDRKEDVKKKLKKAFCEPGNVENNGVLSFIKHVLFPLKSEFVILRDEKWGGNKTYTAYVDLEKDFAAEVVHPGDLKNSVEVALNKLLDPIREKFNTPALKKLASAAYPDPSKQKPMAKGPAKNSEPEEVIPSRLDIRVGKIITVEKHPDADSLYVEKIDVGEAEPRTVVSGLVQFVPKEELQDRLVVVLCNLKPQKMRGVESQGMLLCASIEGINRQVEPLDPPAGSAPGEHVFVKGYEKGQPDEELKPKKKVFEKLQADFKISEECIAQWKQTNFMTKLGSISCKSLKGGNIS
UniProt O75362: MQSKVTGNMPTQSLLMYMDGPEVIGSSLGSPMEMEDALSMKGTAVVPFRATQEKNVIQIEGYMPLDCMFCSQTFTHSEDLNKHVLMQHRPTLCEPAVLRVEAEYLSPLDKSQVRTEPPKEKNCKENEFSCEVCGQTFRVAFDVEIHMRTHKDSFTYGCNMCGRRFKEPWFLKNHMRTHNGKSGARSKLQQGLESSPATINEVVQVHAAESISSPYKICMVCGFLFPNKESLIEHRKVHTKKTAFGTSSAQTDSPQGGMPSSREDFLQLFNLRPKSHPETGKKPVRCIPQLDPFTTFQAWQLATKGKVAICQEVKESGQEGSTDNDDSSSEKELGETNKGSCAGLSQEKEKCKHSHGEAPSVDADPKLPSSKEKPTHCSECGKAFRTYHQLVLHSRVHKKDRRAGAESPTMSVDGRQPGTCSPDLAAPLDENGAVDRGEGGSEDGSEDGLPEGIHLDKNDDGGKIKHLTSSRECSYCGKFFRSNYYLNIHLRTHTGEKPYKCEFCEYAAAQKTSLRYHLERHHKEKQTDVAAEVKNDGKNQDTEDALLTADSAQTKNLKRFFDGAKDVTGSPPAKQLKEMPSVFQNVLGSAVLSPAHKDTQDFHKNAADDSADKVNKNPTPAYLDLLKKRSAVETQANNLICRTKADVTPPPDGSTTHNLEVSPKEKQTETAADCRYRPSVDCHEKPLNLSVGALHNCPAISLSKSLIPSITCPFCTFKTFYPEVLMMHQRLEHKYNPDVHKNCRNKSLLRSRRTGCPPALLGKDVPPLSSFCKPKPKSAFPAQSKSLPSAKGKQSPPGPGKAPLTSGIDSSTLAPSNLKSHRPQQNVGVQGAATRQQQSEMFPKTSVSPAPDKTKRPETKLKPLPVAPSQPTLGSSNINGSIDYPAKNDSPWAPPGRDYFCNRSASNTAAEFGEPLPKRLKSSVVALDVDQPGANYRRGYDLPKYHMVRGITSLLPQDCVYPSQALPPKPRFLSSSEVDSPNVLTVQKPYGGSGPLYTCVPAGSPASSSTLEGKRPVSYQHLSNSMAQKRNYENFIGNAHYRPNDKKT
UniProt Q8IZN3: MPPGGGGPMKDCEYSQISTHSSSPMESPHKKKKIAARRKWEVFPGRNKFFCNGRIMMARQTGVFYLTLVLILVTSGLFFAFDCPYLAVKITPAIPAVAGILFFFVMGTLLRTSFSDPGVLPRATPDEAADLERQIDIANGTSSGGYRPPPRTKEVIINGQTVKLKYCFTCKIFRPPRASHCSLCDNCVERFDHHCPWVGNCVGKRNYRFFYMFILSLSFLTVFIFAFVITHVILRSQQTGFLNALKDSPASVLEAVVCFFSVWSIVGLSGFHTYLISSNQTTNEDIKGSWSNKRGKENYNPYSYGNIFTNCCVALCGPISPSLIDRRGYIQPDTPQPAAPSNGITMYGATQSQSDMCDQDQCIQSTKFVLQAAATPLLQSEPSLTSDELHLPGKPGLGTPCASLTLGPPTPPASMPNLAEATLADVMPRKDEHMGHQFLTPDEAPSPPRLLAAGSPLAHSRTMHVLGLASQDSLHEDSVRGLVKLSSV
UniProt Q6FIF0: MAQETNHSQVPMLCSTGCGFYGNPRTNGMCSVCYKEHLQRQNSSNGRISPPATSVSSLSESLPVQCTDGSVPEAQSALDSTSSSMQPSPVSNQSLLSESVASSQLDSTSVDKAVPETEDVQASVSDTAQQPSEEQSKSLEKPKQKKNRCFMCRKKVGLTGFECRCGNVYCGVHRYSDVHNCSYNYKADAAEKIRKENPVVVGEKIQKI
UniProt Q96EC8: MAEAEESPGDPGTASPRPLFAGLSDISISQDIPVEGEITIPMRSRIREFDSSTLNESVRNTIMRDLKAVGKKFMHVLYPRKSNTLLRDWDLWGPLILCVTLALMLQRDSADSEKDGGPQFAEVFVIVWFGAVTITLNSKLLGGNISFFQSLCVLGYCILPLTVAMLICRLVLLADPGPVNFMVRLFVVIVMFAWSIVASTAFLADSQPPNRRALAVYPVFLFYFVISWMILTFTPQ
UniProt O95159: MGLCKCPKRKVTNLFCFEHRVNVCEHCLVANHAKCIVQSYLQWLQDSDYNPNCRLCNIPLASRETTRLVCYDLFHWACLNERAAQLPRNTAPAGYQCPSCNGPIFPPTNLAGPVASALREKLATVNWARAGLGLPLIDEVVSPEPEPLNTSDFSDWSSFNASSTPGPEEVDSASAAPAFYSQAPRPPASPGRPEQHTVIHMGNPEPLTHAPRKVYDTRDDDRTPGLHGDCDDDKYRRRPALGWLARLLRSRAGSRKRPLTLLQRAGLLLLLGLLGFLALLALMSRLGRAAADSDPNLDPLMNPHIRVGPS
UniProt Q96QU8: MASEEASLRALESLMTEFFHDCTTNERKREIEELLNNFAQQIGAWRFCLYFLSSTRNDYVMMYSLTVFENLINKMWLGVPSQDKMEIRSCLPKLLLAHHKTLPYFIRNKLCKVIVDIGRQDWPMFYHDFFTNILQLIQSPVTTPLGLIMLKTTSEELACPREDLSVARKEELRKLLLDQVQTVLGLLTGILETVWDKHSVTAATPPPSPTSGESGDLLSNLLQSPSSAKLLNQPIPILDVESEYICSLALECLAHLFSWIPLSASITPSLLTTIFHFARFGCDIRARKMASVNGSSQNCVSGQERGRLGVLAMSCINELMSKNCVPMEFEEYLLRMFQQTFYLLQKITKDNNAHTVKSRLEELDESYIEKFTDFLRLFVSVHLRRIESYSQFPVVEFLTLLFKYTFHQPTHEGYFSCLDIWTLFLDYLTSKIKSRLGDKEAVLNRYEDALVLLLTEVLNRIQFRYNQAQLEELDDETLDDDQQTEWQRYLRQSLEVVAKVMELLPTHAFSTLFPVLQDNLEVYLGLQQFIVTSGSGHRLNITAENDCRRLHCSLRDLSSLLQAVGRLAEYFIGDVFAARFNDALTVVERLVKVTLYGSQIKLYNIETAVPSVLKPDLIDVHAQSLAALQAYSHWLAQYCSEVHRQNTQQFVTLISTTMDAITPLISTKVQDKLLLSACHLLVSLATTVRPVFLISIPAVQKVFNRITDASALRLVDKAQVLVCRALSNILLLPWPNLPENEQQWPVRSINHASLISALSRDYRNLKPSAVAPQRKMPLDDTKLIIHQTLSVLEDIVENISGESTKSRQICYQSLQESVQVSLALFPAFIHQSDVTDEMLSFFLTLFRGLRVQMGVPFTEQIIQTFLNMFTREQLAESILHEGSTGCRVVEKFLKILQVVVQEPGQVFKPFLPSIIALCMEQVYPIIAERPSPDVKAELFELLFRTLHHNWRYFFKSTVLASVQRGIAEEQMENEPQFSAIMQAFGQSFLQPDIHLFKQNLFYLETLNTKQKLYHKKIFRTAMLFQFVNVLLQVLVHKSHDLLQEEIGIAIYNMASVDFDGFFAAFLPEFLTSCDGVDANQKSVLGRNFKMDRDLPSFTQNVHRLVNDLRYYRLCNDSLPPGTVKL
UniProt P62699: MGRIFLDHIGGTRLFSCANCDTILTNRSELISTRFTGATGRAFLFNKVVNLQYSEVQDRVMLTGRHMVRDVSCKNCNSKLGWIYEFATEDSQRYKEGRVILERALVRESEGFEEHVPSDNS
UniProt P12956: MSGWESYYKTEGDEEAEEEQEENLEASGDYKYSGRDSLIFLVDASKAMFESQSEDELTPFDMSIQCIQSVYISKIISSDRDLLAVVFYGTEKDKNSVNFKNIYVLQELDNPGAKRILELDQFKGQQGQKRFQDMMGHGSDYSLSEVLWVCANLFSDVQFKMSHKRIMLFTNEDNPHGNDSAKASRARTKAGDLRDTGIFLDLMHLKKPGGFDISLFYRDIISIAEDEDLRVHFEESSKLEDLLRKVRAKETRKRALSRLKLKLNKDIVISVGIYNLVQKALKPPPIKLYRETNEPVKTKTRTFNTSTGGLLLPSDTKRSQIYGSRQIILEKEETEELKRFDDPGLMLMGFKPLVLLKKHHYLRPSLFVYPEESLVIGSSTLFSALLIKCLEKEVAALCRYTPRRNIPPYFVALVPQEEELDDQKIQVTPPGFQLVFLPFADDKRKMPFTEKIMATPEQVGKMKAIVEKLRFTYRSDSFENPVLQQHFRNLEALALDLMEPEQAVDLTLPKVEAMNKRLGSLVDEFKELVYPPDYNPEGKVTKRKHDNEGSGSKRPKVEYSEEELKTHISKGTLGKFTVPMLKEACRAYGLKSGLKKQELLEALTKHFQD
UniProt P63104: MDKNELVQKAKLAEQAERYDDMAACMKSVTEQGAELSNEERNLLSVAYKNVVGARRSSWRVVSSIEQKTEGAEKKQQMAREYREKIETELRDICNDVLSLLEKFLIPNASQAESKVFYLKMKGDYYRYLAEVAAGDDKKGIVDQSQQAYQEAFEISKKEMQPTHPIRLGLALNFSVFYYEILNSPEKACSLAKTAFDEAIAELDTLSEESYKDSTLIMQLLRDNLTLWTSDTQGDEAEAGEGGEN

[2] = compound: CC1=C(C=C(C=C1)NC(=O)C2=CC(=CC=C2)N(C)C)NC(=O)C3=CC=C(C=C3)O
Summary of the method: as §1

[3] = compound: CC1=CC=C(C=C1)SC2=C3C=C(SC3=CN=C2)C(=O)N
Summary of the method: as §1

[4] = compound: CC1=NC(=CC=C1)C2=C(N=C(N2)C(C)(C)C)C3=CC4=NC=CN=C4C=C3
Summary of the method: as §1

Nexturastat A = compound: CCCCN(Cc1ccc(C(=O)NO)cc1)C(=O)Nc1ccccc1 [Nexturastat A]
Summary of the method: as §1

vemurafenib = compound: CCCS(=O)(=O)Nc1ccc(F)c(C(=O)c2c[nH]c3ncc(-c4ccc(Cl)cc4)cc23)c1F [vemurafenib]
Summary of the method: as §1

[5] = compound: CCCS(=O)(=O)Nc1ccc(F)c(C(=O)c2c[nH]c3ncc(Cl)cc23)c1F
Summary of the method: as §1

[6] = compound: CCCc1cc(C)[nH]c(=O)c1CNC(=O)c1cc(-c2ccnc(N3CCN(C)CC3)c2)cc2c1cnn2C(C)C
Summary of the method: as §1

givinostat = compound: CCN(CC)Cc1ccc2cc(COC(=O)Nc3ccc(C(=O)NO)cc3)ccc2c1 [givinostat]
Summary of the method: as §1

barasertib = compound: CCN(CCCOc1ccc2c(Nc3cc(CC(=O)Nc4cccc(F)c4)[nH]n3)ncnc2c1)CCOP(=O)(O)O [barasertib]
Summary of the method: as §1

[7] = compound: CC[C@@H]1C(=O)N(C)c2cnc(Nc3ccc(C(=O)NC4CCN(C)CC4)cc3OC)nc2N1C1CCCC1
Summary of the method: as §1

volasertib = compound: CC[C@@H]1C(=O)N(C)c2cnc(Nc3ccc(C(=O)N[C@H]4CC[C@H](N5CCN(CC6CC6)CC5)CC4)cc3OC)nc2N1C(C)C [volasertib]
Summary of the method: as §1

[8] = compound: CC[C@H](C)N1C=C(C2=C(C=C(C=C21)C3=CN=C(C=C3)N4CCNCC4)C(=O)NCC5=C(C=C(NC5=O)C)C)C
Summary of the method: as §1

epoxomicin = compound: CC[C@H](C)[C@@H](C(=O)N[C@@H]([C@@H](C)O)C(=O)N[C@@H](CC(C)C)C(=O)[C@]1(CO1)C)NC(=O)[C@H]([C@@H](C)CC)N(C)C(=O)C [epoxomicin]
Summary of the method: as §1

[9] = compound: CCn1c(C(=O)N(C2CC2)C2CC2)cc2c3c(ncn3C)c(Nc3cc(C)n(C)n3)nc21
Summary of the method: as §1

[10] = compound: CCn1cc(-c2ccnc3[nH]c(-c4cccc(CN(C)C)c4)cc23)c(-c2ccc(NC(=O)N(C)C)cc2)n1
Summary of the method: as §1

[11] = compound: CN(C)CC(=O)Nc1ccc2[nH]c(=O)c3ccccc3c2c1
Summary of the method: as §1

rosiglitazone = compound: CN(CCOC1=CC=C(C=C1)C[C@H]2C(=O)NC(=O)S2)C3=CC=CC=N3 (racemic) [rosiglitazone]
Summary of the method: as §1

[12] = compound: CN1C2=C(C3=C1C(=O)N(N=C3)CC4=CC(=CC=C4)N)SC(=C2)S(=O)C
Summary of the method: as §1

[13] = compound: CN1CCC(CNc2ccc3ncc(-c4cccc(OC(F)(F)F)c4)n3n2)CC1
Summary of the method: as §1

Target | log2 fold change [1] | log2 fold change [2] | log2 fold change [3] | log2 fold change [4] | log2 fold change (Nexturastat A) | log2 fold change (vemurafenib) | log2 fold change [5] | log2 fold change [6] | log2 fold change (givinostat) | log2 fold change (barasertib) | log2 fold change [7] | log2 fold change (volasertib) | log2 fold change [8] | log2 fold change (epoxomicin) | log2 fold change [9] | log2 fold change [10] | log2 fold change [11] | log2 fold change (rosiglitazone) | log2 fold change [12] | log2 fold change [13]
ZC3H15 (UniProt Q8WU90) | inactive: -0.021 | inactive: -0.005 | inactive: -0.008 | inactive: -0.03 | inactive: 0.179 | inactive: -0.018 | inactive: -0.029 | inactive: -0.108 | inactive: 0.009 | inactive: -0.05 | inactive: 0.071 | inactive: 0.084 | inactive: -0.014 | inactive: -0.023 | inactive: -0.002 | inactive: 0.025 | inactive: -0.05 | inactive: -0.039 | inactive: 0.023 | inactive: 0.089
YJU2 (UniProt Q9BW85) | inactive: 0.03 | inactive: -0.051 | inactive: -0.004 | inactive: 0.074 | inactive: -0.127 | inactive: -0.05 | inactive: 0.013 | inactive: -0.068 | inactive: -0.039 | inactive: 0 | inactive: -0.067 | inactive: -0.081 | inactive: -0.011 | inactive: 0.067 | inactive: 0.03 | inactive: -0.028 | inactive: -0.045 | inactive: 0.011 | inactive: -0.044 | inactive: 0.043
YME1L1 (UniProt Q96TA2) | inactive: -0.032 | inactive: 0.042 | inactive: 0.002 | inactive: 0.019 | inactive: 0.008 | inactive: -0.03 | inactive: -0.027 | inactive: -0.011 | inactive: 0.018 | inactive: -0.003 | inactive: -0.017 | inactive: 0.003 | inactive: -0.019 | inactive: -0.038 | inactive: -0.005 | inactive: 0.046 | inactive: -0.036 | inactive: -0.007 | inactive: 0 | inactive: -0.111
ZNF207 isoform 4 (UniProt O43670) | inactive: 0.02 | inactive: -0.012 | inactive: 0.083 | inactive: 0.043 | inactive: -0.03 | inactive: 0.051 | inactive: 0.041 | inactive: -0.007 | inactive: 0.032 | inactive: -0.074 | inactive: -0.001 | inactive: 0.032 | inactive: -0.003 | inactive: 0.016 | inactive: 0.012 | inactive: -0.076 | inactive: 0.025 | inactive: 0 | inactive: 0.002 | inactive: -0.096
YARS (UniProt P54577) | inactive: -0.027 | inactive: -0.025 | inactive: 0.047 | inactive: -0.01 | inactive: 0.079 | inactive: 0.038 | inactive: 0.082 | inactive: 0.042 | inactive: 0.057 | inactive: 0.048 | inactive: -0.04 | inactive: -0.193 | inactive: 0.095 | inactive: -0.023 | inactive: -0.045 | inactive: 0.009 | inactive: 0.057 | inactive: 0.063 | inactive: 0.045 | inactive: -0.148
XPO7 (UniProt E7ESC6) | inactive: -0.004 | inactive: -0.009 | inactive: 0.019 | inactive: 0.024 | inactive: 0.006 | inactive: 0.022 | inactive: 0.052 | inactive: -0.006 | inactive: -0.046 | inactive: 0.02 | inactive: -0.087 | inactive: -0.192 | inactive: 0.051 | inactive: 0.032 | inactive: 0.002 | inactive: -0.01 | inactive: 0.004 | inactive: 0.005 | inactive: -0.078 | inactive: -0.025
ZNF217 (UniProt O75362) | inactive: 0.075 | inactive: 0.006 | inactive: -0.107 | inactive: 0.01 | inactive: 0.006 | inactive: 0.044 | active: 0.688 | inactive: 0.003 | inactive: 0.037 | inactive: 0.03 | inactive: 0.029 | inactive: -0.007 | inactive: 0.045 | inactive: 0.075 |  | inactive: 0.036 | inactive: 0.06 |  | inactive: 0.237 | inactive: -0.081
ZDHHC14 (UniProt Q8IZN3) | inactive: -0.036 | inactive: 0.033 | inactive: -0.078 | inactive: -0.066 | inactive: -0.065 | inactive: 0.159 | inactive: -0.024 | inactive: -0.027 | inactive: 0.016 | inactive: 0.057 | inactive: -0.002 | inactive: 0.032 | inactive: -0.066 | inactive: 0.017 | inactive: 0.014 |  | inactive: 0.078 | inactive: 0.104 | inactive: -0.046 | 
ZFAND6 (UniProt Q6FIF0) | inactive: 0.069 | inactive: 0.026 | inactive: -0.01 | inactive: -0.088 | inactive: 0.027 | inactive: -0.024 | inactive: 0.002 | inactive: -0.051 | inactive: 0.017 | inactive: 0.04 | inactive: 0.058 | inactive: 0.09 | inactive: -0.05 | inactive: 0.051 |  | inactive: -0.009 | inactive: -0.052 |  | inactive: -0.003 | inactive: -0.037
ZBTB8OS (UniProt Q8IWT0) | inactive: 0.073 | inactive: 0.012 | inactive: -0.044 | inactive: 0.074 | inactive: -0.056 | inactive: -0.002 | inactive: -0.003 | inactive: -0.052 | inactive: -0.025 | inactive: 0.026 | inactive: 0.033 | inactive: 0.08 | inactive: -0.008 | inactive: 0.082 | inactive: -0.045 | inactive: -0.032 | inactive: -0.009 | inactive: 0.027 | inactive: -0.001 | inactive: 0.003
YIPF6 (UniProt Q96EC8) | inactive: -0.131 | inactive: 0.024 | inactive: -0.018 | inactive: 0.047 | inactive: -0.011 | inactive: -0.15 | inactive: 0.004 | inactive: -0.067 | inactive: -0.028 | inactive: -0.041 | inactive: -0.001 | inactive: -0.037 | inactive: -0.039 | inactive: 0.013 |  | inactive: 0.103 | inactive: -0.012 |  | inactive: -0.097 | inactive: 0.155
ZFPL1 (UniProt O95159) | inactive: 0.061 | inactive: 0.094 | inactive: 0.008 | inactive: 0.032 | inactive: -0.064 | inactive: 0.021 | inactive: 0.006 | inactive: -0.05 | inactive: -0.09 | inactive: -0.032 | inactive: -0.027 | inactive: -0.088 | inactive: -0.013 | inactive: 0.134 |  | inactive: 0.032 | inactive: 0 |  | inactive: -0.031 | inactive: -0.085
XPO6 (UniProt Q96QU8) | inactive: 0.008 | inactive: -0.221 | inactive: 0.041 | inactive: -0.369 | active: 0.767 | inactive: 0.082 | inactive: 0.13 | inactive: 0.028 | inactive: 0.068 | inactive: -0.003 | inactive: -0.054 | active: -0.536 | inactive: -0.017 | inactive: -0.249 |  | inactive: 0.174 | inactive: 0.065 |  | inactive: 0.018 | inactive: -0.134
YPEL5 (UniProt P62699) | inactive: -0.131 | inactive: 0.081 | inactive: 0.01 | inactive: 0.097 | inactive: -0.144 | inactive: -0.068 | inactive: -0.127 | inactive: 0.014 | inactive: -0.009 | inactive: 0.121 | inactive: 0.024 | inactive: -0.022 | inactive: 0.109 | inactive: -0.052 |  | inactive: -0.072 | inactive: 0.008 |  | inactive: 0.132 | inactive: -0.094
XRCC6 (UniProt P12956) | inactive: 0.046 | inactive: -0.051 | inactive: 0.022 | inactive: 0.033 | inactive: -0.023 | inactive: 0.059 | inactive: 0.138 | inactive: 0.025 | inactive: 0.116 | inactive: 0.086 | inactive: -0.205 | active: -0.515 | inactive: 0.095 | inactive: 0.072 |  | inactive: 0.008 | inactive: 0.071 |  | inactive: -0.014 | inactive: -0.172
YWHAZ (UniProt P63104) | inactive: 0.025 | inactive: 0.011 | inactive: 0.123 | inactive: 0.009 | inactive: -0.051 | inactive: 0.037 | active: 0.228 | inactive: 0.056 | inactive: -0.001 | inactive: -0.002 | inactive: -0.083 | inactive: -0.016 | inactive: 0.008 | inactive: 0.041 |  | inactive: -0.042 | inactive: 0.009 |  | inactive: -0.115 | inactive: 0.035
ZMYM3 (UniProt Q14202) | inactive: -0.092 | inactive: 0.056 | inactive: -0.07 | inactive: -0.038 | inactive: 0.07 | inactive: -0.109 | inactive: 0.016 | inactive: 0.067 | inactive: 0.002 | inactive: -0.076 | inactive: 0.015 | inactive: -0.077 | inactive: 0.055 | inactive: -0.033 |  | inactive: 0.018 | inactive: -0.067 |  | inactive: -0.023 | inactive: 0.035

Pulled one by one from above (two):
Target | log2 fold change [1] | log2 fold change [2] | log2 fold change [3] | log2 fold change [4] | log2 fold change (Nexturastat A) | log2 fold change (vemurafenib) | log2 fold change [5] | log2 fold change [6] | log2 fold change (givinostat) | log2 fold change (barasertib) | log2 fold change [7] | log2 fold change (volasertib) | log2 fold change [8] | log2 fold change (epoxomicin) | log2 fold change [9] | log2 fold change [10] | log2 fold change [11] | log2 fold change (rosiglitazone) | log2 fold change [12] | log2 fold change [13]
YWHAZ (UniProt P63104) | inactive: 0.025 | inactive: 0.011 | inactive: 0.123 | inactive: 0.009 | inactive: -0.051 | inactive: 0.037 | active: 0.228 | inactive: 0.056 | inactive: -0.001 | inactive: -0.002 | inactive: -0.083 | inactive: -0.016 | inactive: 0.008 | inactive: 0.041 |  | inactive: -0.042 | inactive: 0.009 |  | inactive: -0.115 | inactive: 0.035
XPO7 (UniProt E7ESC6) | inactive: -0.004 | inactive: -0.009 | inactive: 0.019 | inactive: 0.024 | inactive: 0.006 | inactive: 0.022 | inactive: 0.052 | inactive: -0.006 | inactive: -0.046 | inactive: 0.02 | inactive: -0.087 | inactive: -0.192 | inactive: 0.051 | inactive: 0.032 | inactive: 0.002 | inactive: -0.01 | inactive: 0.004 | inactive: 0.005 | inactive: -0.078 | inactive: -0.025

Source: the supplement of paper PMC10849652
